No constants are given. Whether binding was seen depends on the method and setting. For some of these results: Binding seen in cells or lysates may run through a third protein. Some results given as binding are weak or reduced against the parent protein; the word gives no strength. For some of these results: Where a sequence is shown, tags or fusion partners need not be part of it.
B1: Flag-tagged PP2A regulatory B subunit B55δ (PPP2R2D) (protein, UniProt Q66LE6 1-453)
chain: MAGAGGGGCPAGGNDFQWCFSQVKGAIDEDVAEADIISTVEFNYSGDLLATGDKGGRVVIFQREQENKSRPHSRGEYNVYSTFQSHEPEFDYLKSLEIEEKINKIRWLPQQNAAHFLLSTNDKTIKLWKISERDKRAEGYNLKDEDGRLRDPFRITALRVPILKPMDLMVEASPRRIFANAHTYHINSISVNSDHETYLSADDLRINLWHLEITDRSFNIVDIKPANMEELTEVITAAEFHPHQCNVFVYSSSKGTIRLCDMRSSALCDRHSKFFEEPEDPSSRSFFSEIISSISDVKFSHSGRYMMTRDYLSVKVWDLNMESRPVETHQVHEYLRSKLCSLYENDCIFDKFECCWNGSDSAIMTGSYNNFFRMFDRDTRRDVTLEASRESSKPRASLKPRKVCTGGKRRKDEISVDSLDFNKKILHTAWHPVDNVIAVAATNNLYIFQDKIN

The chains behind the UniProt entries cited, without tags or fusion partners. Where a name states a change or a piece, a line headed by the entry shows the natural chain unless it says otherwise. A line that says so, or that is headed by a name, gives the form on record, which may keep a tag or linker.
biotinylated bls-TSC2 (P49815-5, form named): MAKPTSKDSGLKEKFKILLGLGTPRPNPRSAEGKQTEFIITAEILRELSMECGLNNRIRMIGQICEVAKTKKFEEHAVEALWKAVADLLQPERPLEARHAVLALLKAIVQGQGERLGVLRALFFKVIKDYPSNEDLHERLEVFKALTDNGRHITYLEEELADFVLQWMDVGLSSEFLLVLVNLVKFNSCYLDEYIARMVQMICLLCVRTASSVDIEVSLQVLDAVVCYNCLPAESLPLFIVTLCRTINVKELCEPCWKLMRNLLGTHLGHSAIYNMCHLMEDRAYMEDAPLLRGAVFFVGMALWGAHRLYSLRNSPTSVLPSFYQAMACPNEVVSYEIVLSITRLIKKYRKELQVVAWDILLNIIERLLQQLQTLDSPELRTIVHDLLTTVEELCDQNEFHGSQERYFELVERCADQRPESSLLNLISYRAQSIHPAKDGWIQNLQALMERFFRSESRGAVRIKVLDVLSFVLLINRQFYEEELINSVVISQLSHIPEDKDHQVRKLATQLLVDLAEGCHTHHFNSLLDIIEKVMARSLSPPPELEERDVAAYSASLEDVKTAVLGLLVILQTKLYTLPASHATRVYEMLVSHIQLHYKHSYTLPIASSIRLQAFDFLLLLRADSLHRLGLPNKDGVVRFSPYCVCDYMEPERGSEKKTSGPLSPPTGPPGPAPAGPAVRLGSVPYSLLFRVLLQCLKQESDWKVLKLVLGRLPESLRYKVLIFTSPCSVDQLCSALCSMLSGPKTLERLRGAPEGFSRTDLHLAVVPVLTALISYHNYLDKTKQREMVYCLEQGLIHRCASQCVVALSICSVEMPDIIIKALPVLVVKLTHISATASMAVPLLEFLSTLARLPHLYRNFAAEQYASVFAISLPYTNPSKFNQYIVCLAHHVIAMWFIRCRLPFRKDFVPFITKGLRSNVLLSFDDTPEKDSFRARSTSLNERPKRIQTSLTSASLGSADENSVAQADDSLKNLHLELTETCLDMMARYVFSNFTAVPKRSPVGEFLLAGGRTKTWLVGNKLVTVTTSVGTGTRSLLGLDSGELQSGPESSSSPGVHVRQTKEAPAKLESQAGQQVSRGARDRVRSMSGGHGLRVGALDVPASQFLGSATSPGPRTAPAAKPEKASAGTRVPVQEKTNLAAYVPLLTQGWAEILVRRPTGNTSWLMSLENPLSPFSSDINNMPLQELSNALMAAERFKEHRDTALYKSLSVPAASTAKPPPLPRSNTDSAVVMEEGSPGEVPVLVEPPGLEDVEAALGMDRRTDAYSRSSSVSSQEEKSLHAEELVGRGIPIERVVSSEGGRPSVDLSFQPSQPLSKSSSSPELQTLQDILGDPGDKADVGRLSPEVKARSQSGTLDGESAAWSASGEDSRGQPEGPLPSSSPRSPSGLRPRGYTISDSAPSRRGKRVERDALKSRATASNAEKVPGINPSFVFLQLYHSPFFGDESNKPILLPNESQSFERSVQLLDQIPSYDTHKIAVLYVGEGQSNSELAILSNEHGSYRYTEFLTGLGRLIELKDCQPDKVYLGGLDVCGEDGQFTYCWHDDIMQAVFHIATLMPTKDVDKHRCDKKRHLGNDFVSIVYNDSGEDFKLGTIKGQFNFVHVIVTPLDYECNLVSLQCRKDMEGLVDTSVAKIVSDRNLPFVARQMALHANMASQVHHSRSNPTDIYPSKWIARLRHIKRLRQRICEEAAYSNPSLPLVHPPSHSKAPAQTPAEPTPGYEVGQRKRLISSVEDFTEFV
UniProt P67775: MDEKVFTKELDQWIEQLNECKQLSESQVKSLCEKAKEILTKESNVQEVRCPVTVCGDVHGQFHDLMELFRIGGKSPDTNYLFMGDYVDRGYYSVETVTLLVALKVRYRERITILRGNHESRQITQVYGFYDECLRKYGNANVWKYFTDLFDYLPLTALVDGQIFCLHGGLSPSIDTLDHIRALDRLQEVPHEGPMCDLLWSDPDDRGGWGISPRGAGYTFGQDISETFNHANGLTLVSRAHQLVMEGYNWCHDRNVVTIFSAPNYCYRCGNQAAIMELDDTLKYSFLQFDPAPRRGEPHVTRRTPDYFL
UniProt P62714: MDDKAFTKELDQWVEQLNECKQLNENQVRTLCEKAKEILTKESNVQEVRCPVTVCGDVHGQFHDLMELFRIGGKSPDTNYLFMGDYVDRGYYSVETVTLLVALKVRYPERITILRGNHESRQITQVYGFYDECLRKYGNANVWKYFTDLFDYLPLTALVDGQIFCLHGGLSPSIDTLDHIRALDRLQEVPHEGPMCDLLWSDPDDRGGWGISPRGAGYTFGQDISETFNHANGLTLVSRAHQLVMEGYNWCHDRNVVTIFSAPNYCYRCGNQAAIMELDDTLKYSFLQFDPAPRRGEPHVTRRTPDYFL

Target: Flag-TSC2 (1740 aa) (human) (UniProt P49815)
Experiment: co-IP; HEK293 lysates in CoIP lysis buffer (20 mM Tris-HCl pH 7.5, 1% Triton X-100, 10% glycerol, 137 mM NaCl, 2 mM EDTA); anti-Flag M2 antibody for 5 h at 4°C, protein G Sepharose beads, four washes; immunoblot

binding, binds:
endogenous PP2A-Cα (from UniProt P67775 1-309), Flag-TSC2 (1740 aa) (from UniProt P49815-5 1-1740)

Target: biotinylated bls-TSC2 (human) (UniProt P49815)
Experiment: AlphaScreen or HTRF; biotinylated bls-TSC2 (1 ul) and Flag-tagged protein (1 ul), both cell-free synthesized; streptavidin donor beads, anti-Flag M2 antibody and protein A acceptor beads; 100 mM Tris-HCl pH 8.0, 100 mM NaCl, 1 mg/ml BSA, 0.01% Tween-20; 24 h at 25°C

binding, binds:
Flag-tagged PP2A-Cβ (PPP2CB) (from UniProt P62714 1-309), Flag-tagged PP2A-Cα (PPP2CA) (from UniProt P67775-1 1-309), Flag-tagged PP2A regulatory B subunit B56δ (PPP2R5D) (from UniProt Q14738-1 1-602), Flag-tagged PP2A regulatory B subunit B56β (PPP2R5B) (from UniProt Q15173-1 1-497), B1

Reference: PMC12405003
